# Results deposited as PubChem BioAssay AID743454 (Peter MacCallum Cancer Centre, 2014).
# Assay: 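Search for knock-downs that restore vorinostat killing in resistant colon cancer cells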 (primary screen)
# Cells: human HCT116-VR colon cancer cells, selected for vorinostat resistance
# Reagents: siRNA pool against human genes, 40 nM siRNA pool
# Timing: vorinostat for 24 h, read-out about 72 h after transfection
# Challenge: vorinostat at 2.5 µM final
# Read-out: 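Two measures, CellTiter-Fluor viability and luminescent caspase 3/7 activity, each as fold change against same-plate mock wells, mean of duplicates, then screen-wide robust z-score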
# Scale: viability robust z-score: higher = more viable cells than screen typical; caspase robust z-score: higher = more caspase 3/7 activity than screen typical
# Active means: 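a knock-down is a hit when classed RV1 or RV2 for lowered viability, or CA1 or CA2 for caspase activation; those lethal without drug were dropped; hits were retested singly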
# The whole screen tested about 18,000 reagents; this is an unselected part. 450 of all reagents (2.5%) were called active. 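Single biological run; no consistent viability z cut-off exists, so the class columns, not z-scores, define the calls.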 Unmarked entries are inactive.
gene,viability hit class,caspase hit class,viability robust z-score,caspase robust z-score
CDV3,no change,no change,-0.69,-0.69
TSG101,no change,no change,-0.92,1.96
PCDHB2,no change,no change,0.89,-0.52
TMSB4Y,no change,no change,-1.86,-0.3
GLIS3,no change,no change,-2.19,2.61
VN1R5,no change,no change,0.4,-0.95
CLDN6,no change,no change,-2.66,3.12
F8A3,no change,no change,-1.08,3.1
CXXC5,no change,no change,0.04,0.12
OR5AK2,no change,no change,0.82,2
PKN2,no change,no change,-2.08,0.42
USP11,no change (active),CA2 (caspase activation),-0.42,5.88
ADRB1,no change,no change,-1.11,0.78
BRI3,no change,no change,-0.3,2.93
IL21,no change,no change,0.36,3.4
KCNA2,no change,no change,-0.04,0.56
WHRN,no change,no change,2.06,-0.48
ATF5,no change,no change,-0.29,1.5
TSGA10,no change,no change,-0.43,0.94
SLC66A2,no change,no change,1.34,-0.84
DARS2,no change,no change,0.2,-0.7
TBX18,no change,no change,0.87,-0.4
KRTAP10-9,no change,no change,-0.5,2.41
ELOVL4,no change,no change,-2.15,-0.26
GART,no change,no change,-1.89,1.36
RAB35,no change,no change,1,1.96
ZFP36L2,no change,no change,-0.19,1.6
ATP5F1E,no change,no change,0.24,-1.04

The list goes on, starting with the last 2 of the part before.
gene,viability hit class,caspase hit class,viability robust z-score,caspase robust z-score
ZFP36L2,no change,no change,-0.19,1.6
ATP5F1E,no change,no change,0.24,-1.04
OR4C16,no change,no change,0.16,-0.03
FNDC3B,no change,no change,0.04,0.12
ENPP7,no change,no change,0.77,-0.92
SMAD3,no change,no change,0.7,-0.06
ULK4,no change,no change,-0.34,0.4
PABPC1L2A,no change,no change,-0.12,-0.58
REPIN1,no change,no change,-0.98,0.76
ZNF398,no change,no change,-1.22,0.55
SERF2,no change,no change,0.98,-0.44
PLAC4,no change,no change,0.82,0.28
ZNF675,no change,no change,0.2,-1.09
POLK,no change,no change,-1.46,-0.45
PPIL4,no change,no change,0.53,-0.36
PEX14,no change,no change,-1.04,1.68
CEBPA,no change,no change,0.1,0.47
SYS1,no change,no change,-3.06,1.1
MSLN,no change,no change,-2.17,-0.42
PCOLCE,no change,no change,-0.27,2.33
C6orf62,no change,no change,1.13,-0.6
ZC3H12A,no change,no change,0.49,0.53
ITGA3,no change,no change,2.17,0.16
PLS3,no change,no change,1.21,-0.29
ZNF277,no change,no change,-0.22,-0.64
CYP4F22,no change,no change,0.03,-0.3
SHOC2,no change,no change,0.4,1.21
NKAP,no change,no change,-1.06,-0.36
RAP1B,no change,no change,0.36,0.18
SYT1,no change,no change,-0.92,0.52
TIRAP,no change,no change,-0.5,-0.26
